Measurements reported in patent US20260028402A1.
These are yes or no findings as the source states them, for the method shown. Some binding calls cover weakened binding; strength is not graded here.

The chains behind the UniProt entries cited, without tags or fusion partners. Where a name states a change or a piece, a line headed by the entry shows the natural chain unless it says otherwise. A line that says so, or that is headed by a name, gives the form on record, which may keep a tag or linker. Residues count along the entry.
UniProt Q9NZQ7, residues 19-239: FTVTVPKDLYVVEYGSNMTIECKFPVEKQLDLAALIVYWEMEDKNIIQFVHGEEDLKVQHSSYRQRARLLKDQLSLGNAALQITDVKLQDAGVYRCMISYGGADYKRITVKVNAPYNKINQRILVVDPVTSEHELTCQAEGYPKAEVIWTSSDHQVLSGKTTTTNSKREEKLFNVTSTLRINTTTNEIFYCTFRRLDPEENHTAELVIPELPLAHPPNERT
cynomolgus monkey PD-L1 on cells (G7PSE7, form named): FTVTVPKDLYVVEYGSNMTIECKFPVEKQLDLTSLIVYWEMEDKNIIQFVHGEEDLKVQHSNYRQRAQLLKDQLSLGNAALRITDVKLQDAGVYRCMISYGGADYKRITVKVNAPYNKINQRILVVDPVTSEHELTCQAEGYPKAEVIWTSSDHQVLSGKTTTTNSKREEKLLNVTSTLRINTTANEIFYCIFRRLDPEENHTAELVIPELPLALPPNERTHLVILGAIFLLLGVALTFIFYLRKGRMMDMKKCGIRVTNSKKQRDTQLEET

Assays:
[1] = biological target: B7-H1 (i.e., PD-L1) protein (Sino Biological, 10084-HNAH) (UniProt Q9NZQ7); assay: ELISA, protein coated at 2 ug/mL
[2] = biological target: cynomolgus monkey PD-L1 on cells (cynomolgus monkey) (UniProt G7PSE7); assay: flow cytometry on cynomolgus monkey PD-L1-CHO cells
[3] = biological target: B7-H1 (i.e., PD-L1) protein (Sino Biological, 10084-HNAH) (UniProt Q9NZQ7); assay: ELISA, protein coated at 2 ug/mL; legend: +: Binding activity detected

Measured: binding

B1: m18 (antibody, human IgG1, V domains shown)
VH: EVQLVESGGGLVQPGGSLRLSCAASRTDSNIHGMHWYRQAPGKGREWVGMIFIDGNTIVTDSVKGRFTISRDNAKNTLYLQMNTLRAEDTAVYYCAADSRGYGRAWGQGTTVTVSS
binds: all assays above
